Results as given in paper PMC3402419.
No constants are given. Whether binding was seen depends on the method and setting. In cells and extracts the contact can be indirect. Some results given as binding are weak or reduced against the parent protein; the word gives no strength.

Chains of the proteins cited; added tags and fusions are not shown. Lines headed by an entry give the natural chain unless they say otherwise; changes in a name come on top.
UniProt Q9D0C1: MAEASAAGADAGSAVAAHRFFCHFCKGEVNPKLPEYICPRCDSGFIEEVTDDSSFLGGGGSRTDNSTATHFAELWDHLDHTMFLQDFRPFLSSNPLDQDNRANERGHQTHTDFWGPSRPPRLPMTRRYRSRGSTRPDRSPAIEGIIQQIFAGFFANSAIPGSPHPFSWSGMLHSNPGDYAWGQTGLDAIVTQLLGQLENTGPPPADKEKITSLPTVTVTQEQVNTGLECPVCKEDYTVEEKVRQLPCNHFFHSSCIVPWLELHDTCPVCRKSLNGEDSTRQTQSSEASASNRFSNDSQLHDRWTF
UniProt Q99471: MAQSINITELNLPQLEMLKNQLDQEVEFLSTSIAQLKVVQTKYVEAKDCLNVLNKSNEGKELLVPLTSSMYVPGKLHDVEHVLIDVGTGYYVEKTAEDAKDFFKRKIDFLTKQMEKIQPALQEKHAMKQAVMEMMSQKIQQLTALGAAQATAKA

What was measured:
[1] = target: MBP-Rabring7 (UniProt Q9D0C1); assay: pull-down; 20 μl 35S-labeled protein (in vitro translated) with 30 μg MBP-Rabring7 or MBP, 4°C, 2 h, 20 mM Tris-HCl pH 7.4, 150 mM NaCl, 5 mM MgCl2, 0.1% NP40; only the target purified
[2] = target: FLAG-MM-1α expressed in and purified from E. coli (UniProt Q99471); assay: co-IP; 20 μl 35S-Rabring7 (reticulocyte lysate) mixed with 3 μg purified FLAG-MM-1, 4°C, 2.5 h, 20 mM Tris-HCl pH 8.0, 150 mM NaCl, 1 mM EDTA, 0.4% NP40; precipitated with agarose-conjugated anti-FLAG or mouse IgG; fluorography; only the target purified
[3] = target: FLAG-tagged MM-1α (UniProt Q99471); assay: co-IP; transfected H1299, HEK293 or HEK293T cells, 48 h; about 2 mg cell protein precipitated with agarose-conjugated anti-FLAG (M2) or mouse IgG; Western blot with anti-HA and anti-FLAG
[4] = target: FLAG-tagged MM-1α (UniProt Q99471); assay: co-IP; cells co-transfected with FLAG-MM-1α, T7-Rabring7 and HA-ubiquitin, 48 h; cytoplasm and nucleus fractionated, extracts precipitated with anti-FLAG; Western blot with anti-HA, anti-FLAG and anti-T7
[5] = target: HA-MM-1α (UniProt Q99471); assay: co-IP; sequential: H1299 transfected with FLAG-c-Myc, T7-Rabring7 and HA-MM-1; first anti-FLAG agarose, elution with FLAG peptide, then anti-HA; Western blot with anti-T7, anti-HA and anti-FLAG

Substance: 35S-labeled MM-1α (from UniProt Q99471-1 1-154)
- binding [1]: binds

Substance: 35S-labeled Rabring7 (from UniProt Q9D0C1 1-305)
- binding [2]: binds

Substance: HA-Rabring7 (from UniProt Q9D0C1 1-305)
- binding [3]: binds

Substance: T7-Rabring7 (from UniProt Q9D0C1 1-305)
- binding [4]: binds
- binding [5]: binds
